# Reference: US20020193571A1 (published 2002)
# Sequences of proteins named here, by UniProt entry; tags and fusion partners are left off. A change or cut given only in a name is not applied to a line headed by its entry.
# UniProt P48356: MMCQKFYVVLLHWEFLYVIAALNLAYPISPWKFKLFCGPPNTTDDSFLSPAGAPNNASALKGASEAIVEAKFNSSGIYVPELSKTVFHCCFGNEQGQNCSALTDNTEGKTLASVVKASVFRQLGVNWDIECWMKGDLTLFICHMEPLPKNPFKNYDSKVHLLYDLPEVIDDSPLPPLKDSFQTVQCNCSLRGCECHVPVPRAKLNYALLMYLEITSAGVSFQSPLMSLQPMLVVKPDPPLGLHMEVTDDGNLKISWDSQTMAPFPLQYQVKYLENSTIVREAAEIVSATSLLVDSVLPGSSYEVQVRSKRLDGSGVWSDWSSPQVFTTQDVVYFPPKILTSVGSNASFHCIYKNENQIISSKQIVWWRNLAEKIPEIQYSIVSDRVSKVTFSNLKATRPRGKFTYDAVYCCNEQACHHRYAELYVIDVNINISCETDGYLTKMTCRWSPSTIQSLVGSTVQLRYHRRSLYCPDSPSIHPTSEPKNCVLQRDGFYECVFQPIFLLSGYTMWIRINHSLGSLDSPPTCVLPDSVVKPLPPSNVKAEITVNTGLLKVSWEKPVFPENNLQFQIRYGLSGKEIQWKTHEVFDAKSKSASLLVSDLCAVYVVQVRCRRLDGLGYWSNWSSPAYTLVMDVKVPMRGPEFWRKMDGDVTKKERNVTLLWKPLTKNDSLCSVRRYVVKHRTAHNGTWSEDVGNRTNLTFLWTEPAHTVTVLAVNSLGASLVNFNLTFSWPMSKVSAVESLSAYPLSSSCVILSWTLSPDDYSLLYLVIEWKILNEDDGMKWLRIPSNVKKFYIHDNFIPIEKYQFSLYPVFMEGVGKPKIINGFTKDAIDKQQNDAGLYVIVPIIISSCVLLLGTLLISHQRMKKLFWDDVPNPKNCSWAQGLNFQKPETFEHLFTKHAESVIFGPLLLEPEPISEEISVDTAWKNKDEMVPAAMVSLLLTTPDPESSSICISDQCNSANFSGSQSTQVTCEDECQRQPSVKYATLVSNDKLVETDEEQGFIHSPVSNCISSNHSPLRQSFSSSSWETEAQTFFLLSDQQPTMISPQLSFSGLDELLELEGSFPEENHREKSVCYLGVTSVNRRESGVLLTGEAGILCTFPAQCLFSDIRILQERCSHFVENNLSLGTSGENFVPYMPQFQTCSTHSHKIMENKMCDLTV
# No constants are given. Whether binding was seen depends on the method and setting. Some binding calls cover weakened binding; strength is not graded here.
# Biological target: murine WSX receptor fused to a gD tag (murine) (UniProt P48356)
# Assay: capture ELISA, murine WSX receptor-gD (see Example 13)
row,Binder,binding
1,"agonist antibody clone #17 scFv (scFv, Human scFv from a phage library; tested as scFv phage and as soluble scFv) scFv: QVRLQQSGGGLVQPGRSLRLSCAASGFTFDDYAMHWVRQAPGKGLEWVSGMTWNSGSIGYADSVKGRFTISRDNAKNSLYLQMNSLRAEDTAVYYCAREPHNTDAFDIWGRGTLVTVSSGGGGPGGGGSGGGGSDVVMTQSPSFLSAFVGDTITITCRASQGIYNYLAWYQQKPGKAPKLLIYAASTLQSGVPSRFSGSGSGTEFTLTISSLQPEDFGTYYCQQLISYPLTFGGGTKVEIK",binds
2,agonist antibody clone #4 scFv (scFv) scFv: EVQLVQSGAEVKKPGESLKISCQGSGFTFSSYKMNWVRQAPGKGLEWMGGIIPIFGTANYAQKFQGRVTITADESTSTAYMELSSLRSEDTAVYYCARDRVVVPATSLRGGMDVWGQGTTVTVSSGGGGSGGGGSGGGGSQSVLTQPASVSGSPGQSITISCTGTSSDVGGYNYVSWYQQHPGKAPKLMIYEGSKRPSGVSNRFSGSKSGSTASLTISGLQAEDEADYYCSSYTTRSTRVFGGGTKLTVL,binds
